{"source": "PubChem BioAssay AID1345085", "about": "(National Center for Advancing Translational Sciences (NCATS), 2018)", "note": "Inconclusive results, whose numbers are uncertain, are shown with a selection of clear calls. Potencies of inconclusive entries are doubtful fits and often do not repeat. Calls of active or inactive are those of the source. Calls come from the whole dose curve; as a rule, active = well fitted cell-killing curve with a large enough effect; inconclusive = small, poorly fitted or top-dose-only effect, or effect the other way; inactive = no such curve, though single readings can be large or run the other way. Potency is the fitted concentration of half-maximal effect."}
{"tested_on": "SKOV3", "test": "Confirmatory qHTS for gynecologic anti-cancer compounds from libraries of approved drugs and bioactive compounds; note: nearly all actives have a fitted effect of over 55% in size", "conditions": "gynecologic cancer cell panel viability, ATPlite luminescence, 48 h; series mostly up to 57.6 µM", "summary_of_the_method": "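Cells (1,000/well) plated 16 h, then exposed 48 h at 37 °C to 11 concentrations (1:3) from 57.5 uM to 0.977 nM. Viability by ATPlite luminescence after 15 min; IC50 derived, with HEK 293T used for selectivity index.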"}
{"smiles": "CO[C@@]12[C@H](COC(N)=O)C3=C(C(=O)C(C)=C(N)C3=O)N1C[C@@H]1N[C@@H]12", "Potency": "inconclusive: 6.11 µM [rising, partial curve]"}
{"smiles": "CCC1C(=O)N(C)c2cnc(Nc3ccc(C(=O)NC4CCC(N5CCN(CC6CC6)CC5)CC4)cc3OC)nc2N1C(C)C", "note": "(centres undefined)", "Potency": "inconclusive: 0.0968 µM [cytotoxic, full curve]"}
{"smiles": "CC(C)[C@@H](CS(=O)(=O)C(C)C)N1C(=O)[C@@](C)(CC(=O)O)C[C@H](c2cccc(Cl)c2)[C@H]1c1ccc(Cl)cc1", "Potency": "inconclusive: 0.137 µM [rising, partial curve, poor fit]"}
{"smiles": "O=C(O)C1(Cc2cccc(Nc3nccs3)n2)CCC(Oc2cccc(Cl)c2F)CC1", "note": "(centres undefined)", "Potency": "inactive"}
{"smiles": "CCN(CC)CCCC(C)Nc1ccnc2cc(Cl)ccc12", "note": "(centres undefined)", "Potency": "inactive"}
{"smiles": "CCOc1cc2ncc(C#N)c(Nc3ccc(F)c(Cl)c3)c2cc1NC(=O)/C=C/CN(C)C", "Potency": "inconclusive: 38.5 µM [rising, partial curve, poor fit]"}
{"smiles": "COc1cc(Nc2ncc3c(n2)-c2ccc(Cl)cc2C(c2c(F)cccc2OC)=NC3)ccc1C(=O)O", "Potency": "inactive"}
{"smiles": "Cc1ccccc1C(OCCN(C)C)c1ccccc1", "note": "(centres undefined)", "Potency": "inconclusive: 0.769 µM [rising, full curve]"}
{"smiles": "Cc1cc(CN2CCN(c3c(Br)cnc4nc(-c5ccc(N6CCN(C)CC6)cc5)[nH]c34)CC2)no1", "Potency": "active: 34.3 µM"}
{"smiles": "CCn1cc(-c2ccnc3[nH]c(-c4cccc(CN(C)C)c4)cc23)c(-c2ccc(NC(=O)N(C)C)cc2)n1", "Potency": "inconclusive: 23.7 µM [cytotoxic, single point]"}
{"smiles": "Nc1ncnc2c1ncn2[C@@H]1O[C@H](CO)C[C@H]1O", "Potency": "inconclusive: 0.344 µM [rising, full curve, poor fit]"}
{"smiles": "CN(NC(=O)CC(=O)NN(C)C(=S)c1ccccc1)C(=S)c1ccccc1", "Potency": "inconclusive: 0.485 µM [cytotoxic, full curve, poor fit]"}
{"smiles": "CN(C)C1CCN(C(=O)c2ccc(NC(=O)Nc3nc(N4CCOCC4)nc(N4CCOCC4)n3)cc2)CC1", "Potency": "active: 0.109 µM"}
{"smiles": "CC(C)Oc1ccc2c(=O)c(-c3ccccc3)coc2c1", "Potency": "active: 21.7 µM"}
{"smiles": "Cc1cc(C(C)Nc2ccccc2C(=O)O)c2nc(N3CCOCC3)cc(=O)n2c1", "note": "(centres undefined)", "Potency": "active: 3.06 µM"}
{"smiles": "COc1ccc2c(c1)c(CC(=O)O)c(C)n2C(=O)c1ccc(Cl)cc1", "Potency": "inactive"}
{"smiles": "CNC1CCC(N(Cc2cccc(-c3ccncc3)c2)C(=O)c2sc3ccccc3c2Cl)CC1", "note": "(centres undefined)", "Potency": "inconclusive: 43.2 µM [cytotoxic, single point]"}
{"smiles": "CCCS(=O)c1ccc2nc(NC(=O)OC)[nH]c2c1", "note": "(centres undefined)", "Potency": "inconclusive: 43.2 µM [cytotoxic, single point]"}
{"smiles": "Cc1ccc(C(=O)N(CCCN)C(c2oc3cc(Cl)ccc3c(=O)c2Cc2ccccc2)C(C)C)cc1", "note": "(centres undefined)", "Potency": "inconclusive: 30.6 µM [cytotoxic, single point]"}
{"smiles": "CNc1nc(Nc2ccc(C(=O)N3CCOCC3)cc2OC)ncc1Cl", "Potency": "inactive"}
{"smiles": "CC[C@@]1(O)C(=O)OCc2c1cc1n(c2=O)Cc2c-1nc1ccccc1c2/C=N/OC(C)(C)C", "Potency": "active: 0.0432 µM"}
{"smiles": "FC(F)(F)c1ccc(/C=C/c2nc(COc3ccc(CCCCn4ccnn4)cc3)co2)cc1", "Potency": "inactive"}
{"smiles": "COc1cc(N2CCC(N3CCN(C)CC3)CC2)ccc1Nc1ncnc(Nc2ccccc2S(=O)(=O)C(C)C)n1", "Potency": "inconclusive: 21.7 µM [cytotoxic, partial curve]"}
{"smiles": "O=C(NCC(O)CO)c1ccncc1Nc1ccc(I)cc1F", "note": "(centres undefined)", "Potency": "inconclusive: 9.68 µM [cytotoxic, partial curve]"}
{"smiles": "C[C@@]1(C(=O)Nc2ccc(F)nc2)CCCN1c1nc(Nc2cc(C3CC3)[nH]n2)c2cccn2n1", "Potency": "active: 3.43 µM"}
{"smiles": "CC1=C(/C=C/C(C)=C/C=C/C(C)=C/C(=O)Nc2ccc(O)cc2)C(C)(C)CCC1", "Potency": "inconclusive: 34.3 µM [cytotoxic, single point]"}
{"smiles": "CC[C@]1(O)C[C@@H]2CN(CCc3c([nH]c4ccccc34)[C@@](C(=O)OC)(c3cc4c(cc3OC)N(C)[C@H]3[C@@](O)(C(=O)OC)[C@H](OC(C)=O)[C@]5(CC)C=CCN6CC[C@]43[C@@H]65)C2)C1", "Potency": "inconclusive: 0.0685 µM [cytotoxic, full curve]"}
{"smiles": "CN(C)c1ccc2nc3ccc(=[N+](C)C)cc-3sc2c1", "Potency": "inconclusive: 0.0153 µM [rising, partial curve]"}
{"smiles": "Cc1nc2ccc(CN(C)c3ccc(C(=O)NC(CCC(=O)O)C(=O)O)s3)cc2c(=O)[nH]1", "note": "(centres undefined)", "Potency": "inconclusive: 0.0769 µM [cytotoxic, full curve]"}
